The supplement of paper PMC4604168 (melanoma cell lines)
The list shows a part of the results. Many values rest on one well or one pass, so single values are uncertain.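 The apoptosis fraction was the count of cleaved-PARP antibody-stained nuclei relative to all DNA-stained nuclei, imaged in 1,536-well plates. Screening doses were set so most cells survived, and baseline and induced cleaved-PARP levels vary greatly across cell lines.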

What follows are compounds tested on CBRC008 (line from a melanoma biopsy) (assay: cleaved PARP positive nuclei fraction relative to DMSO control; melanoma cells; higher = more apoptosis). Conditions: library dose: low library concentration; 72 h.

SMILES	cleaved PARP positive nuclei fraction
C[C@]12O[C@H](C[C@]1(O)CO)n1c3ccccc3c3c4c(c5c6ccccc6n2c5c31)CNC4=O [Lestaurtinib] + C[C@]1(c2nc3c(C(N)=O)cccc3[nH]2)CCCN1 [Veliparib] (first compound 0.004 µM, partner dose 1.4 µM)	101%
Cn1cc(C2=C(c3cn(C4CCN(Cc5ccccn5)CC4)c4ccccc34)C(=O)NC2=O)c2ccccc21 [Enzastaurin] + CN1CCN(c2ccc3nc(-c4c(N)c5c(F)cccc5[nH]c4=O)[nH]c3c2)CC1 [Dovitinib] (first compound 0.8 µM, partner dose 0.1 µM)	189%
CCCCCCCCc1ccc(CCC(N)(CO)CO)cc1 [fingolimod] + N.N.[Cl][Pt][Cl] [cisplatin] (first compound 2 µM, partner dose 1.6 µM)	45.1%
Cn1cc(C2=C(c3cn(C4CCN(Cc5ccccn5)CC4)c4ccccc34)C(=O)NC2=O)c2ccccc21 [Enzastaurin] + CCCS(=O)(=O)Nc1ccc(F)c(C(=O)c2c[nH]c3ncc(Cl)cc23)c1F [PLX4720] (first compound 0.8 µM, partner dose 0.08 µM)	168%
CC1(C)CCC(c2ccc(Cl)cc2)=C(CN2CCN(c3ccc(C(=O)NS(=O)(=O)c4ccc(N[C@H](CCN5CCOCC5)CSc5ccccc5)c(S(=O)(=O)C(F)(F)F)c4)cc3)CC2)C1 + N.N.[Cl][Pt][Cl] [cisplatin] (first compound 0.4 µM, partner dose 1.6 µM)	1310%
Cn1cc(C2=C(c3cn(C4CCN(Cc5ccccn5)CC4)c4ccccc34)C(=O)NC2=O)c2ccccc21 [Enzastaurin] + Nc1ccn([C@@H]2O[C@H](CO)[C@@H](O)C2(F)F)c(=O)n1 [gemcitabine] (first compound 0.8 µM, partner dose 0.0004 µM)	121%
N.N.[Cl][Pt][Cl] [cisplatin] + Nc1ncn([C@H]2C[C@H](O)[C@@H](CO)O2)c(=O)n1 [decitabine] (first compound 1.6 µM, partner dose 0.1 µM)	565%
Cn1sc(=O)n(Cc2ccccc2)c1=O + C[C@]12O[C@H](C[C@]1(O)CO)n1c3ccccc3c3c4c(c5c6ccccc6n2c5c31)CNC4=O [Lestaurtinib] (first compound 0.4 µM, partner dose 0.004 µM)	35.2%
Cn1cc(C2=C(c3cn(C4CCN(Cc5ccccn5)CC4)c4ccccc34)C(=O)NC2=O)c2ccccc21 [Enzastaurin] + COCC[n+]1c2c(n(Cc3cnccn3)c1C)C(=O)c1ccccc1C2=O [YM155] (first compound 0.8 µM, partner dose 0.0004 µM)	130%
C[C@]1(O)C[C@@H](c2nc(-c3ccc4ccc(-c5ccccc5)nc4c3)c3c(N)nccn32)C1 + N.N.[Cl][Pt][Cl] [cisplatin] (first compound 0.4 µM, partner dose 1.6 µM)	118%
C[C@]12O[C@H](C[C@]1(O)CO)n1c3ccccc3c3c4c(c5c6ccccc6n2c5c31)CNC4=O [Lestaurtinib] + CC(C)C[C@H](NC(=O)[C@H](Cc1ccccc1)NC(=O)c1cnccn1)B(O)O [Bortezomib] (first compound 0.004 µM, partner dose 0.001 µM)	162%
COc1ccc(C2=N[C@@H](c3ccc(Cl)cc3)[C@@H](c3ccc(Cl)cc3)N2C(=O)N2CCNC(=O)C2)c(OC(C)C)c1 [Nutlin-3] + C[C@]12O[C@H](C[C@]1(O)CO)n1c3ccccc3c3c4c(c5c6ccccc6n2c5c31)CNC4=O [Lestaurtinib] (first compound 0.1 µM, partner dose 0.004 µM)	108%
C=CCNC1=C2C[C@@H](C)C[C@H](OC)[C@H](O)[C@@H](C)/C=C(\C)[C@H](OC(N)=O)[C@@H](OC)/C=C\C=C(/C)C(=O)NC(=CC1=O)C2=O [Tanespimycin] + C[As](C)SC[C@H](NC(=O)CC[C@H](N)C(=O)O)C(=O)NCC(=O)O [Darinaparsin] (first compound 0.002 µM, partner dose 0.4 µM)	169%
COc1ccc(C2=N[C@@H](c3ccc(Cl)cc3)[C@@H](c3ccc(Cl)cc3)N2C(=O)N2CCNC(=O)C2)c(OC(C)C)c1 [Nutlin-3] + C[As](C)SC[C@H](NC(=O)CC[C@H](N)C(=O)O)C(=O)NCC(=O)O [Darinaparsin] (first compound 0.1 µM, partner dose 0.4 µM)	72.5%
Cn1cc(C2=C(c3cn(C4CCN(Cc5ccccn5)CC4)c4ccccc34)C(=O)NC2=O)c2ccccc21 [Enzastaurin] + CNC(=O)c1cc(Oc2ccc(NC(=O)Nc3ccc(Cl)c(C(F)(F)F)c3)cc2)ccn1 [sorafenib] (first compound 0.8 µM, partner dose 0.4 µM)	44.1%
C[C@]12O[C@H](C[C@]1(O)CO)n1c3ccccc3c3c4c(c5c6ccccc6n2c5c31)CNC4=O [Lestaurtinib] + CO[C@H]1C[C@@H]2CC[C@@H](C)[C@@](O)(O2)C(=O)C(=O)N2CCCC[C@H]2C(=O)O[C@H]([C@H](C)C[C@@H]2CC[C@@H](OCCO)[C@H](OC)C2)CC(=O)[C@H](C)/C=C(\C)[C@@H](O)[C@@H](OC)C(=O)[C@H](C)C[C@H](C)/C=C/C=C/C=C/1C [everolimus] (first compound 0.004 µM, partner dose 0.02 µM)	137%
N.N.[Cl][Pt][Cl] [cisplatin] + Cn1c(Nc2ccc(C(F)(F)F)cc2)nc2cc(Oc3ccnc(-c4ncc(C(F)(F)F)[nH]4)c3)ccc21 [CHIR265] (first compound 1.6 µM, partner dose 0.08 µM)	95%
C[C@]12O[C@H](C[C@]1(O)CO)n1c3ccccc3c3c4c(c5c6ccccc6n2c5c31)CNC4=O [Lestaurtinib] + C=C(c1ccc(C(=O)O)cc1)c1cc2c(cc1C)C(C)(C)CCC2(C)C [Bexarotene] (first compound 0.004 µM, partner dose 2 µM)	118%
N.N.[Cl][Pt][Cl] [cisplatin] + CO[C@H]1C[C@@H]2CC[C@@H](C)[C@@](O)(O2)C(=O)C(=O)N2CCCC[C@H]2C(=O)O[C@H]([C@H](C)C[C@@H]2CC[C@@H](OCCO)[C@H](OC)C2)CC(=O)[C@H](C)/C=C(\C)[C@@H](O)[C@@H](OC)C(=O)[C@H](C)C[C@H](C)/C=C/C=C/C=C/1C [everolimus] (first compound 1.6 µM, partner dose 0.02 µM)	196%
COc1ccc(C2=N[C@@H](c3ccc(Cl)cc3)[C@@H](c3ccc(Cl)cc3)N2C(=O)N2CCNC(=O)C2)c(OC(C)C)c1 [Nutlin-3] + N.N.[Cl][Pt][Cl] [cisplatin] (first compound 0.1 µM, partner dose 1.6 µM)	154%
Cn1sc(=O)n(Cc2ccccc2)c1=O + N.N.[Cl][Pt][Cl] [cisplatin] (first compound 0.4 µM, partner dose 1.6 µM)	123%
Cn1cc(C2=C(c3cn(C4CCN(Cc5ccccn5)CC4)c4ccccc34)C(=O)NC2=O)c2ccccc21 [Enzastaurin] + CN(c1ncccc1CNc1nc(Nc2ccc3c(c2)CC(=O)N3)ncc1C(F)(F)F)S(C)(=O)=O [PF562271] (first compound 0.8 µM, partner dose 0.08 µM)	405%
C[C@]12O[C@H](C[C@]1(O)CO)n1c3ccccc3c3c4c(c5c6ccccc6n2c5c31)CNC4=O [Lestaurtinib] + CCCS(=O)(=O)Nc1ccc(F)c(C(=O)c2c[nH]c3ncc(Cl)cc23)c1F [PLX4720] (first compound 0.004 µM, partner dose 0.08 µM)	45.9%
C[C@]12O[C@H](C[C@]1(O)CO)n1c3ccccc3c3c4c(c5c6ccccc6n2c5c31)CNC4=O [Lestaurtinib] + COc1ccc(Cl)c(Nc2nc3ccccc3nc2NS(=O)(=O)c2cccc(NC(=O)C(C)(C)N)c2)c1 [XL147] (first compound 0.004 µM, partner dose 0.8 µM)	776%
N.N.[Cl][Pt][Cl] [cisplatin] + Cn1nnc2c(C(N)=O)ncn2c1=O [temozolomide] (first compound 1.6 µM, partner dose 2 µM)	106%
Cn1cc(C2=C(c3cn(C4CCN(Cc5ccccn5)CC4)c4ccccc34)C(=O)NC2=O)c2ccccc21 [Enzastaurin] + C=CCNC1=C2C[C@@H](C)C[C@H](OC)[C@H](O)[C@@H](C)/C=C(\C)[C@H](OC(N)=O)[C@@H](OC)/C=C\C=C(/C)C(=O)NC(=CC1=O)C2=O [Tanespimycin] (first compound 0.8 µM, partner dose 0.002 µM)	213%
CS(=O)(=O)c1ccc(C(=O)Nc2ccc(Cl)c(-c3ccccn3)c2)c(Cl)c1 [vismodegib] + C[As](C)SC[C@H](NC(=O)CC[C@H](N)C(=O)O)C(=O)NCC(=O)O [Darinaparsin] (first compound 1 µM, partner dose 0.4 µM)	180%
CS(=O)(=O)c1ccc(C(=O)Nc2ccc(Cl)c(-c3ccccn3)c2)c(Cl)c1 [vismodegib] + N.N.[Cl][Pt][Cl] [cisplatin] (first compound 1 µM, partner dose 1.6 µM)	80.2%

Eight entries from above, bar-delimited:
SMILES | cleaved PARP positive nuclei fraction
Cn1cc(C2=C(c3cn(C4CCN(Cc5ccccn5)CC4)c4ccccc34)C(=O)NC2=O)c2ccccc21 [Enzastaurin] + CN1CCN(c2ccc3nc(-c4c(N)c5c(F)cccc5[nH]c4=O)[nH]c3c2)CC1 [Dovitinib] (first compound 0.8 µM, partner dose 0.1 µM) | 189%
CCCCCCCCc1ccc(CCC(N)(CO)CO)cc1 [fingolimod] + N.N.[Cl][Pt][Cl] [cisplatin] (first compound 2 µM, partner dose 1.6 µM) | 45.1%
Cn1cc(C2=C(c3cn(C4CCN(Cc5ccccn5)CC4)c4ccccc34)C(=O)NC2=O)c2ccccc21 [Enzastaurin] + CCCS(=O)(=O)Nc1ccc(F)c(C(=O)c2c[nH]c3ncc(Cl)cc23)c1F [PLX4720] (first compound 0.8 µM, partner dose 0.08 µM) | 168%
CC1(C)CCC(c2ccc(Cl)cc2)=C(CN2CCN(c3ccc(C(=O)NS(=O)(=O)c4ccc(N[C@H](CCN5CCOCC5)CSc5ccccc5)c(S(=O)(=O)C(F)(F)F)c4)cc3)CC2)C1 + N.N.[Cl][Pt][Cl] [cisplatin] (first compound 0.4 µM, partner dose 1.6 µM) | 1310%
Cn1cc(C2=C(c3cn(C4CCN(Cc5ccccn5)CC4)c4ccccc34)C(=O)NC2=O)c2ccccc21 [Enzastaurin] + Nc1ccn([C@@H]2O[C@H](CO)[C@@H](O)C2(F)F)c(=O)n1 [gemcitabine] (first compound 0.8 µM, partner dose 0.0004 µM) | 121%
N.N.[Cl][Pt][Cl] [cisplatin] + Nc1ncn([C@H]2C[C@H](O)[C@@H](CO)O2)c(=O)n1 [decitabine] (first compound 1.6 µM, partner dose 0.1 µM) | 565%
Cn1sc(=O)n(Cc2ccccc2)c1=O + C[C@]12O[C@H](C[C@]1(O)CO)n1c3ccccc3c3c4c(c5c6ccccc6n2c5c31)CNC4=O [Lestaurtinib] (first compound 0.4 µM, partner dose 0.004 µM) | 35.2%
Cn1cc(C2=C(c3cn(C4CCN(Cc5ccccn5)CC4)c4ccccc34)C(=O)NC2=O)c2ccccc21 [Enzastaurin] + COCC[n+]1c2c(n(Cc3cnccn3)c1C)C(=O)c1ccccc1C2=O [YM155] (first compound 0.8 µM, partner dose 0.0004 µM) | 130%
